For data set [1], the system named is dry matter degradation of oats and alfalfa hay in the rumen. Format: in vivo, sheep.
Data set [2] deals with methane emissions by sheep. Format: in vivo.
The test system of data set [3] is methane production of dairy cows. Also on record: species or system Holstein X Friesian dairy cows. Particulars: in vivo.

The source of these data is US9266814B2, “Use of nitrooxy organic molecules in feed for reducing methane emission in ruminants, and/or to improve ruminant performance” (DSM IP ASSETS B.V., priority 2010, dated 2016).

SMILES strings stand for the structures. Where “and” joins values, the source holds several entries; their conditions need not be identical. Equal entries are not always repeated. Where two headings read alike, the source gives them in different places.

With `CCOC(=O)CCO[N+](=O)[O-]` [Additive 1, ethyl-3-nitrooxypropionate, reference compound], the “DMD oats (dry matter degradation)” value in data set [1] (24 hours in the rumen of sheep, days 22 and 23, 100 mg per animal and day) is reported as 74.0%. Besides, the “DMD alfalfa hay (dry matter degradation)” value in data set [1] (48 hours in the rumen of sheep, days 22 and 23, 100 mg per animal and day) was 78.3%. For the same molecule, the “intake” value worked out at 0.849 kg/day in data set [2] (sheep, 100 mg per animal and day via ruminal cannula, day 14); 0.944 kg/day in data set [2] (sheep, 100 mg per animal and day via ruminal cannula, day 29); 0.925 kg/day in data set [2] (sheep, 100 mg per animal and day via ruminal cannula, day 30); 0.933 kg/day in data set [2] (sheep, 100 mg per animal and day via ruminal cannula, days 29-30 pooled).
`O=[N+]([O-])OCCCO` [Compound 1, 3-Nitrooxypropanol]: in data set [1] (in vivo), the “DMD alfalfa hay (dry matter degradation)” value came to 78.8% and the “DMD oats (dry matter degradation)” value is 70.6%. In data set [3], the “DMI” value was 18.8 kg/day and 18.5 kg/day; the “effect on daily dry matter intake (DMI)” value is reported as “no significant effect”. Moreover, in data set [2] (in vivo), the “intake” value is 0.922 kg/day and 0.747 kg/day and 0.823 kg/day and 0.867 kg/day.
